From article doi:10.1101/2021.08.18.456771
Results are given in words; binding and its absence hold for the method and conditions named. Binding seen in cells or lysates may run through a third protein. Some results given as binding are weak or reduced against the parent protein; the word gives no strength. Tags and fused reporters may be left off the sequences shown.

Protein sequences, listed by entry. Tags and fused reporters are not part of them.
UniProt P28347: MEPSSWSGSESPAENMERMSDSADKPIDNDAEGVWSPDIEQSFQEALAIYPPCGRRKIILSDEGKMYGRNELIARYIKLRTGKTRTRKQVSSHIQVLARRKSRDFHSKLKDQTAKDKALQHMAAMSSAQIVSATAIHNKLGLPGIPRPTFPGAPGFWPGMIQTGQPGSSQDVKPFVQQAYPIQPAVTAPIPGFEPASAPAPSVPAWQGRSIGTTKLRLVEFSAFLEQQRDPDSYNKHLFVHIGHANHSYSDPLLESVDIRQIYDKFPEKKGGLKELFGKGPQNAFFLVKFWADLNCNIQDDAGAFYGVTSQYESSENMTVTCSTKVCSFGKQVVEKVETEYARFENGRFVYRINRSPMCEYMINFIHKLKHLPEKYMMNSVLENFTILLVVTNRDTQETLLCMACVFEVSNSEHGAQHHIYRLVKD
UniProt Q01196: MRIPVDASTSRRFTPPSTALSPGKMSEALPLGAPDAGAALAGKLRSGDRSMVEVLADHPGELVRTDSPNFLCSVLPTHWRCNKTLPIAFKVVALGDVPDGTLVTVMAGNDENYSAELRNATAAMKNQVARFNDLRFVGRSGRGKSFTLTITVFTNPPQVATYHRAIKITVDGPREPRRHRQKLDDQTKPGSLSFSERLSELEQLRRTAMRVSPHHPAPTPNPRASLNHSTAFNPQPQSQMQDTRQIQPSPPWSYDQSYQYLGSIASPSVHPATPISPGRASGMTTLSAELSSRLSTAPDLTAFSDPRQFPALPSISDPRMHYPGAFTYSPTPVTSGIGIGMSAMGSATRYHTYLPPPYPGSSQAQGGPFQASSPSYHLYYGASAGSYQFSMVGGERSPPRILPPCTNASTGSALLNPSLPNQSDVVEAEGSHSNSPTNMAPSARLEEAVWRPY

How the values were obtained:
Myc-TEAD1 = Myc-TEAD1 (UniProt P28347); assay: co-IP
Myc-RUNX1 = Myc-RUNX1 (UniProt Q01196); assay: co-IP

binding (Myc-TEAD1): binds
binding (Myc-RUNX1): binds
B1: FLAG-VGLL3 (protein, UniProt A8MV65-1 1-326)
chain: MSCAEVMYHPQPYGASQYLPNPMAATTCPTAYYQPAPQPGQQKKLAVFSKMQDSLEVTLPSKQEEEDEEEEEEEKDQPAEMEYLNSRCVLFTYFQGDIGSVVDEHFSRALGQAITLHPESAISKSKMGLTPLWRDSSALSSQRNSFPTSFWTSSYQPPPAPCLGGVHPDFQVTGPPGTFSAADPSPWPGHNLHQTGPAPPPAVSESWPYPLTSQVSPSYSHMHDVYMRHHHPHAHMHHRHRHHHHHHHPPAGSALDPSYGPLLMPSVHAARIPAPQCDITKTEPTTVTSATSAWAGAFHGTVDIVPSVGFDTGLQHQDKSKESPWY
